Assay results published in paper PMC3750045, “Human RNase H1 Is Associated with Protein P32 and Is Involved in Mitochondrial Pre-rRNA Processing” (PLoS ONE, 2013).
The exact form of at least one protein or probe is not confirmed. For some of these results: A negative result means that nothing was seen under these conditions. For some of these results: A weaker result is weaker than the reference pair of the same experiment. For some of these results: At least one verdict was read from the data and is not stated in words by the source. For some of these results: Where a protein sequence is shown, tags need not be part of it.

Protein sequences, listed by entry. Tags and fused reporters are not part of them. Lines headed by an entry give the natural chain unless they say otherwise; changes in a name come on top.
UniProt Q07021: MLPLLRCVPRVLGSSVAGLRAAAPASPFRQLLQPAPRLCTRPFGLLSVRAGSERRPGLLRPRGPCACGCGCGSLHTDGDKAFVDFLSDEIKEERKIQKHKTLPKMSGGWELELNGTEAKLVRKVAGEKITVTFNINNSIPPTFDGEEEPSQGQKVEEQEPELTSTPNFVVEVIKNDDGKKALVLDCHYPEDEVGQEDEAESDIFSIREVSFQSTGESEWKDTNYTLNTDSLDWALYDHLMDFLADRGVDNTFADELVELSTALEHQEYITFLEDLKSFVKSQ

Key:
GST-P32 (Homo sapiens) = GST-P32 (Homo sapiens) (UniProt Q07021); experiment: EMSA; settings: 2 mM Mg2+, 4 C; strand 1 uniformly 2'-fluoro RNA; strand 2 DNA; EMSA: 20 mM Tris pH 7.0, 20 mM NaCl, 2 mM MgCl2, 5% glycerol, 30 min at 4 C; recombinant protein; protein details: N-terminal GST; label: 32P (5' end); synthetic backbone
[1] = target: T1, His-RNase H1 (Homo sapiens) (UniProt O60930); experiment: competition (inhibition of cleavage of the Apo B RNA/DNA duplex); settings: plus GST control, value only in figure; strand 1 uniformly 2'-fluoro RNA; strand 2 DNA; EMSA: 20 mM Tris pH 7.0, 20 mM NaCl, 2 mM MgCl2, 5% glycerol, 30 min at 4 C; recombinant protein; residues 1-286; protein details: N-terminal His; label: 32P (5' end); synthetic backbone
T1 sequence (looked up): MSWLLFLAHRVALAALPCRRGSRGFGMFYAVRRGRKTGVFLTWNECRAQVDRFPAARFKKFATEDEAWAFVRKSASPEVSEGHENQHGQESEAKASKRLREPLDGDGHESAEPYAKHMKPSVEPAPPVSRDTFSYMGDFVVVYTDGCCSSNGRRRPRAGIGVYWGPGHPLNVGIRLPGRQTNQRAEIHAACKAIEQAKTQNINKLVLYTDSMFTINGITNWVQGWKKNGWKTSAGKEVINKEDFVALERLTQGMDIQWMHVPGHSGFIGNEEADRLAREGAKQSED

His-RNase H1 + GST-P32 = experiment: as above; settings: value only in figure, strand 1 uniformly 2'-fluoro RNA, strand 2 DNA, EMSA: 20 mM Tris pH 7.0, 20 mM NaCl, 2 mM MgCl2, 5% glycerol, 30 min at 4 C, recombinant protein, protein details: N-terminal His,N-terminal GST, label: 32P (5' end), synthetic backbone

“GGAUGGUAGCACAAGUGACA / TGTCCTTGTGCTACCATCC [Duplex B, non-cleavable Apo B 2'-fluoro RNA/DNA heteroduplex]”: no binding (GST-P32 (Homo sapiens)); binds [1]; binds more weakly (His-RNase H1 + GST-P32; H1:P32 1:1, Kd increase similar to ~4-fold Km increase vs GST control). “GGAUGGUAGCACAAGUGACA / TGTCCTTGTGCTACCATCC [Duplex B, non-cleavable Apo B 2'-fluoro RNA/DNA heteroduplex]”: binds more weakly (His-RNase H1 + GST-P32; H1:P32 1:5, Kd increase similar to ~5-fold Km increase vs GST control).
